At least one compound was matched to its structure with a doubt left.
What was measured:
[1] = system: MCF7 cells transduced with c-Myc, H-Ras, or both; assay: Mammosphere formation in MCF7 cells transduced with c-Myc and/or H-Ras; assay type: cell-based, human; conditions: H-Ras plus c-Myc, doxycycline treatment, FIG. 4
MCF7 cells = assay: Mammosphere formation in MCF7 cells (rotenone-induced oxidative stress); assay type: cell-based, human; conditions: MCF7 mammospheres pretreated with rotenone; FIG. 6
Experimental: Investigation of the mechanism of tumorigenesis may be conducted by transduction of MCF7 cells with c-Myc, H-Ras, or both, and then subjecting the cell lines to phenotypic characterization, such as mammosphere formation. For the mammosphere formation assay inventors employed, a single suspension of MCF7 cells was prepared using enzymatic (lx Trypsin-EDTA, Sigma Aldrich) and manual disaggregation with a 25-gauge needle. Cells were plated at a density of 500 cells/cm^2 in a mammosphere medium (DMEM-F12/B27/20-ng/mlEGF/PenStrep) in non-adherent conditions, in culture dishes coated with 2-hydroxyethylmethacrylate (poly-HEMA, Sigma). Cells were grown for 5 days and maintained in a humidified incubator at 37° C. at an atmospheric pressure in 5% (v/v) carbon dioxide/air. After 5 days in culture, spheres >50 μm were counted using an eye-piece graticule, and the percentage of cells plated which formed spheres was calculated and is referred to as percent mammosphere formation, normalized to vehicle-alone treated controls. Mammosphere assays were performed in triplicate and repeated three times independently.
The inventors hypothesized that c-Myc induces “stemness” of CSCs in part by driving and managing the onset of mitochondrial oxidative stress. To test this hypothesis, inventors used a pharmacological approach to stimulate oxidative stress. […]

`C[C@H]1c2cccc(O)c2C(=O)C2=C(O)[C@]3(O)C(=O)C(C(N)=O)=C(O)[C@@H](N(C)C)[C@@H]3[C@@H](O)[C@@H]21` [doxycycline] was tested. Which c-Myc-H-Ras-induced mammosphere formation [1] did it give?
Its c-Myc-H-Ras-induced mammosphere formation is “sensitive”.

And the “effect on rotenone-stimulated mammosphere formation” value (MCF7 cells)?
The value was “Identical effects”.

— patent US11561227B2, “Anti-mitochondrial inhibitors for oncogenic Ras and Myc” (LUNELLA BIOTECH, INC., priority 2017, dated 2023)
